These are yes or no findings as the source states them, for the method shown. For some of these results: A result given as binding can be weak or reduced; the word gives no strength. For some of these results: Sequences can lack the tags named with a protein. Values belong to the molecule of their own block, whether it stands above or below them.
Tests used:
[1] = molecular target: CLEC14A lacking the sushi domain (human) (UniProt Q86T13); assay: far-Western; lysates of transfected HEK293T separated by SDS-PAGE under non-reducing conditions, on PVDF; probed 1 h with MMRN2^FL-transfected HEK293T lysate (6 x 10^6 cells/ml, diluted 1:50); His tag of the probe detected
[2] = molecular target: CLEC14A lacking the CTLD (human) (UniProt Q86T13); assay: as above
[3] = molecular target: chimera 1 CLEC14A^THBD(CTLD); assay: flow cytometry on cells; transfected HEK293T (5 x 10^5) stained with biotinylated MMRN2^495-674 (20 μg/ml), detected with streptavidin-PE; GFP+ cells gated; only the binder purified
[4] = molecular target: chimera 2 CLEC14A^THBD(sushi); assay: as above

Protein sequences, listed by entry. Tags and fused reporters are not part of them. Lines headed by an entry give the natural chain unless they say otherwise; changes in a name come on top.
UniProt Q86T13: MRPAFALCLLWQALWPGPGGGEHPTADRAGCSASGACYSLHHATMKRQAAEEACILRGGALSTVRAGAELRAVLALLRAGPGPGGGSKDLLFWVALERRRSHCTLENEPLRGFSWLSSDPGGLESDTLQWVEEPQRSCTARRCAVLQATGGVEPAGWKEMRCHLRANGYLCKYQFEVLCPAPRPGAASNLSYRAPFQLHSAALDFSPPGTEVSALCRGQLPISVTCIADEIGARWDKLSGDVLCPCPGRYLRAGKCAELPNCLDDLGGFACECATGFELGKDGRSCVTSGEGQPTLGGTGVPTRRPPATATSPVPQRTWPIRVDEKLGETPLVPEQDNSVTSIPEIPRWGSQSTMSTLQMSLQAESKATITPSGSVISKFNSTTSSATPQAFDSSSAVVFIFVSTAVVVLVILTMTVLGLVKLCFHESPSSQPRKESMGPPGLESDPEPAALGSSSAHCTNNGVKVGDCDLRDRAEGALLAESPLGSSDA

- binding [1]: no binding (tested: lysate diluted 1:50)
- binding [2]: no binding (tested: lysate diluted 1:50)
Molecule: full-length multimerin-2 with a polyhistidine tag (MMRN2^FL) (from UniProt Q9H8L6 23-949)

- binding [3]: no binding (tested: 20 μg/ml)
- binding [4]: binds
B1: biotinylated MMRN2^495-674 with BirA tag, from E. coli (domain or fragment, UniProt Q9H8L6 495-674)
chain: QKLYLDLDVIREGQRDATRALEETQVSLDERRQLDGSSLQALQNAVDAVSLAVDAHKAEGERARAATSRLRSQVQALDDEVGALKAAAAEARHEVRQLHSAFAALLEDALRHEAVLAALFGEEVLEEMSEQTPGPLPLSYEQIRVALQDAASGLQEQALGWDELAARVTALEQASEPPRP
modifications: biotin (BirA tag for specific biotinylation)

Reference: article PMC5671938, “Multimerin-2 is a ligand for group 14 family C-type lectins CLEC14A, CD93 and CD248 spanning the endothelial pericyte interface” (Oncogene, 2017)
